In publication PMC13189625:
Results are given in words; binding and its absence hold for the method and conditions named. Binding seen in cells or lysates may run through a third protein. Here binding means that the protein was enriched with, or labelled near, the bait; the list need not be complete. A no says only that the protein was not detected with the bait. Where a sequence is shown, tags or fusion partners need not be part of it.

The chains behind the UniProt entries cited, without tags or fusion partners.
UniProt O54851: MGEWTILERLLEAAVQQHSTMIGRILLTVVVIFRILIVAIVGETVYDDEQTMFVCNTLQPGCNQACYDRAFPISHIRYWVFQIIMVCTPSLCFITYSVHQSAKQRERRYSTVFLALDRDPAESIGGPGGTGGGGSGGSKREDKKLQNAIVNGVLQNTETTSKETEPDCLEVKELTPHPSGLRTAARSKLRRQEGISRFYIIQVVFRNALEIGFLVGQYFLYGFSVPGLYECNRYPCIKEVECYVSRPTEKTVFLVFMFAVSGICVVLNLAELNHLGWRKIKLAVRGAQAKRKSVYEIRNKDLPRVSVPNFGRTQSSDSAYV
UniProt Q8C0T5: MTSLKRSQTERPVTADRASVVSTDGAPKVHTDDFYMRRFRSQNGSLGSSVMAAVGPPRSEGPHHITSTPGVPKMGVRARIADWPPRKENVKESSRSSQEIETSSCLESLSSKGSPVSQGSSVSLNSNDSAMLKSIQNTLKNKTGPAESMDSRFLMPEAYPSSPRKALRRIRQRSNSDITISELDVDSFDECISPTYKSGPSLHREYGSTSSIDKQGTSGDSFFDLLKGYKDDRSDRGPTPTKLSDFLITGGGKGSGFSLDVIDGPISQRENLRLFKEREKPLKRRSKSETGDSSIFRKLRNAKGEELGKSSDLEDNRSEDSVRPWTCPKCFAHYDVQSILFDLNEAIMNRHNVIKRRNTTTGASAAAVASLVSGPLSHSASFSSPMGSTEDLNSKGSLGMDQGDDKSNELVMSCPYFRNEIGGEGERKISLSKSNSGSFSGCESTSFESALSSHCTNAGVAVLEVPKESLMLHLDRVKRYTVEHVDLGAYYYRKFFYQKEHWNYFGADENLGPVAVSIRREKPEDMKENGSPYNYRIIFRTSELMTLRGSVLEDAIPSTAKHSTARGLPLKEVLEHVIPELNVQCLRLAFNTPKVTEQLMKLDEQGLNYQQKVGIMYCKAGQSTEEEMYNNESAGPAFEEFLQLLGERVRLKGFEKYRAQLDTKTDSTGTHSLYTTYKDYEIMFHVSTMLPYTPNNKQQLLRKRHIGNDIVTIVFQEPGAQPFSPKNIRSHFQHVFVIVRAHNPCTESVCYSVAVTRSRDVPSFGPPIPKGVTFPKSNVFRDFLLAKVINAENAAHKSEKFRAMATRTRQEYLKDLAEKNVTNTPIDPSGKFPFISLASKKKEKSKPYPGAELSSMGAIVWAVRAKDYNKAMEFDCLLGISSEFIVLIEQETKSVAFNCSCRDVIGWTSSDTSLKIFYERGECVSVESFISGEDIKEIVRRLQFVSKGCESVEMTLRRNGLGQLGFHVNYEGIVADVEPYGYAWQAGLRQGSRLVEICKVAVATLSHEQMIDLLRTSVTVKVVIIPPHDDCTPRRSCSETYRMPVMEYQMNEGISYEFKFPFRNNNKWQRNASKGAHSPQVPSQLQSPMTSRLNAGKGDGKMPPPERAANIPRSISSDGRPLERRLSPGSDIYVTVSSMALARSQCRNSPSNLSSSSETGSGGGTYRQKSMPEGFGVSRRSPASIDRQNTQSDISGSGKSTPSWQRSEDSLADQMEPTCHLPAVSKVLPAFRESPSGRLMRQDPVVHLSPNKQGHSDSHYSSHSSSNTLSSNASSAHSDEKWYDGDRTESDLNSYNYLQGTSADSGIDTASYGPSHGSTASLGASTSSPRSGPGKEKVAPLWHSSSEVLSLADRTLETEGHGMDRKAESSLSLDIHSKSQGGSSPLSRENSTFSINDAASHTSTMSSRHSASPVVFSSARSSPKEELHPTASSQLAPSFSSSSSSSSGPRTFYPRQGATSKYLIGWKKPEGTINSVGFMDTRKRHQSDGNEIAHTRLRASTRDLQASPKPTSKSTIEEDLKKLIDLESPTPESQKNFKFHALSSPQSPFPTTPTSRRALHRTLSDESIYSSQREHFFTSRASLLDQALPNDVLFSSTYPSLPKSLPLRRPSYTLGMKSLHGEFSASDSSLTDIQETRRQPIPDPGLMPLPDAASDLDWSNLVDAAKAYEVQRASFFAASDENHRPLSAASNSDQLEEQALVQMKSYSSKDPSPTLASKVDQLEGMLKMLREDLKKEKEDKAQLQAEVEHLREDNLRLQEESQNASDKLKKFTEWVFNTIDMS
UniProt Q9D6K5: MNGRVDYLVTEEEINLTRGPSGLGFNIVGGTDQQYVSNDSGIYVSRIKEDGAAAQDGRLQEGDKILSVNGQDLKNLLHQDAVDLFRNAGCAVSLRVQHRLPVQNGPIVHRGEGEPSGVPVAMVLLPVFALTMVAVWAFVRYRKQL
UniProt O08599: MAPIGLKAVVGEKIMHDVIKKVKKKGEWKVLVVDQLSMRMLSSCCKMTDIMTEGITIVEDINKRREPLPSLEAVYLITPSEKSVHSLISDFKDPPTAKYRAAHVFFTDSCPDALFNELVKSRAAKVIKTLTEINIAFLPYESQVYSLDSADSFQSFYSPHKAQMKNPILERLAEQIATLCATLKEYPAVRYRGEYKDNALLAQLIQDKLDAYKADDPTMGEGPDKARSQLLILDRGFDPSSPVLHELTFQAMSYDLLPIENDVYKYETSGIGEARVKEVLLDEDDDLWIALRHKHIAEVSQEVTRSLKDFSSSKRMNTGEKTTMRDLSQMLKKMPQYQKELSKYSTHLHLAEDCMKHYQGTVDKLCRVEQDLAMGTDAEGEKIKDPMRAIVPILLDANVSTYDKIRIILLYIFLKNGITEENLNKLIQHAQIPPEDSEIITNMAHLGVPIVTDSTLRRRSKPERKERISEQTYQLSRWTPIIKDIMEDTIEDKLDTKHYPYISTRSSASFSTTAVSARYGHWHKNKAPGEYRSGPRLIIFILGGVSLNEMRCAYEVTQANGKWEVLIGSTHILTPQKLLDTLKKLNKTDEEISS
UniProt Q9QZQ1: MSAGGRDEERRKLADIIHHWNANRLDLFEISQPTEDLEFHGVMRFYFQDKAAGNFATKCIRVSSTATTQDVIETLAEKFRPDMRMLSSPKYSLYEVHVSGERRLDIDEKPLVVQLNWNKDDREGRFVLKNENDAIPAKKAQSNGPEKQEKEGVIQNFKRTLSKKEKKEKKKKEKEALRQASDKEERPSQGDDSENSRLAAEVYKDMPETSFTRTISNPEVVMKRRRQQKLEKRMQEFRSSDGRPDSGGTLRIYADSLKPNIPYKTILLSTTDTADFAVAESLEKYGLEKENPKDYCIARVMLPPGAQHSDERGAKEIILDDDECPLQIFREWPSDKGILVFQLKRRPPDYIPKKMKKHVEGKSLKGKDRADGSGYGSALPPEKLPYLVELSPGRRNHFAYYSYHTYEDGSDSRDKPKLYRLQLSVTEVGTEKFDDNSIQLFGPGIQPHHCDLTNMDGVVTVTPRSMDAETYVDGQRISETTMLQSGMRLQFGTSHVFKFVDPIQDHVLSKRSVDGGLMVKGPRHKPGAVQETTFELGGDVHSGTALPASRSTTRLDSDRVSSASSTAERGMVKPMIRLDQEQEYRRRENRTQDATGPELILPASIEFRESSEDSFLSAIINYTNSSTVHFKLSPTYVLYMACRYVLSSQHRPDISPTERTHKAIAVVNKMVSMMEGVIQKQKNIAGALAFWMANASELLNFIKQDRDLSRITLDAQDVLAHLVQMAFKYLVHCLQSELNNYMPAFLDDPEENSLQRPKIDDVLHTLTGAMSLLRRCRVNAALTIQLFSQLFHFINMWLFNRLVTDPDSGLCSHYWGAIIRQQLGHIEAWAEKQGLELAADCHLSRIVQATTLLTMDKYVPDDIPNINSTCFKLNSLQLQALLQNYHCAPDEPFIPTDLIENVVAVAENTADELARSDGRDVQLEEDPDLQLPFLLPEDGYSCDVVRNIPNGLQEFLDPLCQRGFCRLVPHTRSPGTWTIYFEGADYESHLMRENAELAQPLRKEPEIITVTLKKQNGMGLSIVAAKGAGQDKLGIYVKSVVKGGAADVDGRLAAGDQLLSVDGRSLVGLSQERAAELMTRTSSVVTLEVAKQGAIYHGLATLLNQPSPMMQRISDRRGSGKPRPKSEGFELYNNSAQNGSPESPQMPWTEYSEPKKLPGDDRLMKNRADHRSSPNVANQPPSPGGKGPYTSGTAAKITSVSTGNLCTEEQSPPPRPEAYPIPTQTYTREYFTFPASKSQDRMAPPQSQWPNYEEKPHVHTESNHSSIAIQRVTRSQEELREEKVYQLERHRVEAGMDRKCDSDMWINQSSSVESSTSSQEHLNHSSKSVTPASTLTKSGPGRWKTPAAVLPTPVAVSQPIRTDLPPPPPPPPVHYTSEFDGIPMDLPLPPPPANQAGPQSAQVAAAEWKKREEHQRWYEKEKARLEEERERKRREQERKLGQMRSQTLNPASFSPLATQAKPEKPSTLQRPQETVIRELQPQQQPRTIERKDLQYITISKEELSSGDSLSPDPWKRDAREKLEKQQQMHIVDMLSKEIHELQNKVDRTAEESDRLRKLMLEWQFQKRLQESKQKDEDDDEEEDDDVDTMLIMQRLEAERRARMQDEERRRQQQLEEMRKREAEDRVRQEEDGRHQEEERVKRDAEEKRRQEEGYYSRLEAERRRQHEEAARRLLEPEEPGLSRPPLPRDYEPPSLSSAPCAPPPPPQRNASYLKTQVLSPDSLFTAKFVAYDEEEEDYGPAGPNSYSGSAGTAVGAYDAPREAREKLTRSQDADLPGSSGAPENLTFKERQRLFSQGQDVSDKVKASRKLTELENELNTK
UniProt G3X9J0: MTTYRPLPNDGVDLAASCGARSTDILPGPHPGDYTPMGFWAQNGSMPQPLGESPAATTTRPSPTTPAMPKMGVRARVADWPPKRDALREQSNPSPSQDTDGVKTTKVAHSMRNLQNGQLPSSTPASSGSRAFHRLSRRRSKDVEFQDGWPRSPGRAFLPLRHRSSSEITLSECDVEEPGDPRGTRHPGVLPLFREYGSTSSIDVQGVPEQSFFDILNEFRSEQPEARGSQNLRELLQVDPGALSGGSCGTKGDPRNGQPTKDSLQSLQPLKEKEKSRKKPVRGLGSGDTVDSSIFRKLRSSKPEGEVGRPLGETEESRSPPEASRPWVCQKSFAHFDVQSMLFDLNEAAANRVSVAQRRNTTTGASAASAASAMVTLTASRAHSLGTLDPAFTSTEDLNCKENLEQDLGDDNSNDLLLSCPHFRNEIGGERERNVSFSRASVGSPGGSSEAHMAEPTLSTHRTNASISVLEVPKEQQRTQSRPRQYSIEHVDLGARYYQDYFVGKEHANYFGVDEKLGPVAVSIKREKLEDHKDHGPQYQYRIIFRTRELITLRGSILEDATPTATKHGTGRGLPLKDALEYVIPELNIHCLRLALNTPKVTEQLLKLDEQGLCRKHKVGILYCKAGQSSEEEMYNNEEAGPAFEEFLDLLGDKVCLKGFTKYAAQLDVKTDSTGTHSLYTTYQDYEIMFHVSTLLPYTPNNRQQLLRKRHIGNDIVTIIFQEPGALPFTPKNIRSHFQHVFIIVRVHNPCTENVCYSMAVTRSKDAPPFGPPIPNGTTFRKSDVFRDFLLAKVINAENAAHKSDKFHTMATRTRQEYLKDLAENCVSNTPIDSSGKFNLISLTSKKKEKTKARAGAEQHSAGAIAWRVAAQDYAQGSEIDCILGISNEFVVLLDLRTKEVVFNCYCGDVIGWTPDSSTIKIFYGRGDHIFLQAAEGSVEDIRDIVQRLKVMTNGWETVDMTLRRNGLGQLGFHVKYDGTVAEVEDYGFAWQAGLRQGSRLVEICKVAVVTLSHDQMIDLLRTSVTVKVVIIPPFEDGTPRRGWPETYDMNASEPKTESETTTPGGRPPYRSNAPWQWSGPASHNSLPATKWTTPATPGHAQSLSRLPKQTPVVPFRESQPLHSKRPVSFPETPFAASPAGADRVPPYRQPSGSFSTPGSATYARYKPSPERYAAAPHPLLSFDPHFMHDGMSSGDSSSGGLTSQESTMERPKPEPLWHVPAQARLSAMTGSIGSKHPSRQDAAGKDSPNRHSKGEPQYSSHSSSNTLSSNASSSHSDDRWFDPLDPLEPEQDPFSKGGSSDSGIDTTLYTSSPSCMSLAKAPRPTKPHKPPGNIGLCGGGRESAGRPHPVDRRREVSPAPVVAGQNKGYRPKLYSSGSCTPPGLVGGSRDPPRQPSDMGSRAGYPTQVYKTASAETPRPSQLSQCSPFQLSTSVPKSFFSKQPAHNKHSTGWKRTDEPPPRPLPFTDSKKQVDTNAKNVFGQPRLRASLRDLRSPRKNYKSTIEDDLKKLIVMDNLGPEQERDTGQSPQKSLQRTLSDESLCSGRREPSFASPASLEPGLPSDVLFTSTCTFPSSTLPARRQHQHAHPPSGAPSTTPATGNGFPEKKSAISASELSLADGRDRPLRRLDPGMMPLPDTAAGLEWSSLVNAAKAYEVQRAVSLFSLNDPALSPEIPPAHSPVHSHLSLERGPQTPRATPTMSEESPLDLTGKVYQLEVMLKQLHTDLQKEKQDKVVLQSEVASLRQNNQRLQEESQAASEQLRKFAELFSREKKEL

B1: ZO-2 (mouse retina) (protein, UniProt Q9Z0U1 1-1167)
chain: MEEVIWEQYTVTLQKDSKRGFGIAVSGGRDNPHFENGETSIVISDVLPGGPADGLLQENDRVVMVNGTPMEDVLHSFAVQQLRKSGKIAAIVVKRPRKVQVAPLQGSPPLSHDDRGFEVIEEFDGRSFRSGYSERSRHSSHDMLSHSWEGNRERGRPHQRTQSRERERSRGRSLERGLDQEDYGRSRERSRGRSLERGLDRDFVSRDHSRGRSIDRDYDRDYERSYHEAYEPDYGGGYSPSYDRRAHPETRYERSRSREHLRSRSPSPESRSRHEHKGQHDPDRPIGVLLTKSKANEEYGLRLGSQIFIKEMTRTGLATKDGNLHEGDIILKINGTVTENMSLTDARKLIEKSRGKLQLVVLRDSKQTLINIPALNDSDSEVEDISEIESNRSFSPEERRQQYSDQDYHSSTEKLKERPSSREETSGRLSRMGATPTPFKSTGDITAAGVTEASREPRYQEEGPVPQPRTAPRVFLRPSPEDEAIYGPNTKMVRFKKGDSVGLRLAGGNDVGIFVAGIQEGTSAEQEGLQEGDQILKVNTQDFRGLVREDAVLYLLEIPKGETVTILAQSRADVYRDILACGRGDSFFIRSHFECEKETPQSLAFTRGEVFRVVDTLYDGKLGHWLAVRIGNELEKGLIPNKSRAEQMASVQNAQRENAGDRADFWRMRGQRSSGGVKKNLRKSREDLAAAVSVSTKFPAYEKVLLREAGFKRPVVLFGPIADIAMERLATELPDLFQTAKTEPKDAGSEKSSGVVRLNTVRQIIEQDKHALLDVTPKAVDLLNYTQWFPIVIFFNPDSRQGVKTIRQRLSPTSNKSSRKLFDQANKLKKTCSHLFTATINVNSANDGWFGSLKDSIQQQQNEAVWVSEGKMEGMDDDAEDRMSYLTAMGADYLSCDSRLISDFEDTDGEGGAYTDNELEEPAEEPLVSSITRSSEPVQHEENIRKSSPEPRAQMRRAASRDQLRDASPPPAFKPEPPKARSQNREDSFDYSKSNLPATAGSEIPGGSTKGYPPPIAAKPAFGRPILKPSTPVPMPESEEVGESTEEQEDAPRSVLGRVKIFEKMDHKAKLQRMQELQEAQNARIEIAQKHPDIYAVPIKAPKPDAGLPPHMSSRPPEPQKAPSRLYQDTRGSYGSDPEEEEYRQQLAAHSKRGYYSQPSRYRDTEL
B2: Eps15l1 (mouse retina) (protein, UniProt Q60902 1-907)
chain: MAAPLVPLSQQIPGGNPLYESYYKQVDPAYTGRVGASEAALFLKKSGLSDIILGKIWDLADPEGKGFLDKQGFYVALRLVACAQSGHEVTLSSLSLTMPPPKFHDTSSPLMATQSSAETHWAVRVEEKAKFDGIFESLLPVNGLLSGDKVKPVLMNSKLPLDVLGRVWDLSDIDKDGHLDRDEFAVAMHLVYRALEKEPVPSILPPPLIPPSKRKKTVFAGAVPVLPASPPPKDSLRSTPSHGSVSSLNSTGSLSPKHSVKQPPVAWVVPVADKMRFDEIFLKTDLDLDGYVSGQEVKEIFMHSGLTQNLLAHIWALADTRQTGKLSKEQFALAMYFIQQKVSKGIDPPQVLSPDMVPPSERGTPIPDSSSTLASGEFTGVKELDDISQEIAQLQREKYSLEQDIREKEEAIRQKTSEVQELQNDLDRETSSLQELEAQKQDAQDRLDEMDQQKAKLRDMLSDVRQKCQDETQTISSLKTQIQSQESDLKSQEDDLNRAKSELNRLQQEETQLEQSIQAGRAQLETILRSLKCTQDDINQARSKLSQLQESHLEAHRSLEQYDQVPDGVSGTSLPDLATLNEGILLAERGGFGAMDDPFKNKALLFSNNSQELHPDPFQAEDPFKSDPFKGADPFKGDPFQSDPFSEQQTAATDPFGGDPFKESDPFHSSSSDDFFKKQTKNDPFTSDPFTKNPSLPSKLDPFESSDPFSSSSISSKGSDPFGTLDPFGSSSFSSAEGFADFSQMSKPPPSGPFSSSLGGTGFSDDPFKSKQDTPALPPKKPAPPRPKPPSGQSTPVSQLGSSDFPESPDPFQPLGADSGDPFQNKKGFGDPFSGKDPFAPSSSAKPPKTSSSGFADFTSFGNEEQQLAWAKRESEKAEQERLARLRRQEQEDLELAIALSKADMPA
B3: Snap91 (mouse retina) (protein, UniProt Q61548 1-901)
chain: MSGQTLTDRIAAAQYSVTGSAVARAVCKATTHEVMGPKKKHLDYLIQATNETNVNIPQMADTLFERATNSSWVVVFKALVTTHHLMVHGNERFIQYLASRNTLFNLSNFLDKSGSHGYDMSTFIRRYSRYLNEKAFSYRQMAFDFARVKKGADGVMRTMVPEKLLKSMPILQGQIDALLEFDVHPNELTNGVINAAFMLLFKDLIKLFACYNDGVINLLEKFFEMKKGQCKDALEIYKRFLTRMTRVSEFLKVAEQVGIDKGDIPDLTQAPSSLMETLEQHLNTLEGKKPGNNEGSGAPSPLSKSSPATTVTSPNSTPAKTIDTSPPVDIFATASAAAPVSSAKPSSDLLDLQPDFSGAAAGAAAPVVPPSGGATAWGDLLGEDSLAALSSVPCEAPISDPFAPEPSPPTTTTEPASASASTTTAVTAVTTEVDLFGDAFAASPGEAPAASEGATAPATPAPVAAALDACSGNDPFAPSEGSAEAAPELDLFAMKPPETSAPVVTPTASTAPPVPATAPSPAPTAVAATAATTTAAAAATTTATTSAAAATTAAAPPALDIFGDLFDSAPEVAAAPKPDAAPSIDLFGTDAFSSPPRGASPVPESSLTADLLSVDAFAAPSPASTASPAKAESSGVIDLFGDAFGSGASETQPAPQAVSSSSASADLLAGFGGSFMAPSTTPVTPAQNNLLQPSFEAAFGTTPSTSSSSSFDPSVFDGLGDLLMPTMAPSGQPAPVSMVPPSPAMAASKGLGSDLDSSLASLVGNLGISGTTSKKGDLQWNAGEKKLTGGANWQPKVTPATWSAGVPPQGTVPPTSSVPPGAGAPSVGQPGAGFGMPPSGTGMTMMSQQPVMFAQPMMRPPFGAAAVPGTQLSPSPTPATQSPKKPPAKDPLADLNIKDFL
B4: synaptotagmin 4 (mouse retina) (protein, UniProt P40749 1-425)
chain: MAPITTSRVEFDEIPTVVGIFSAFGLVFTVSLFAWICCQRRSAKSNKTPPYKFVHVLKGVDIYPENLSSKKKFGGDDKSEVKGKAALPNLSLHLDLEKRDLNGNFPKANPKAGSSSDLENVTPKLFTETEKEANSPESLKSSTSLTSEEKQEKLGTLFLSLEYNFEKKAFVVNIKEAQGLPAMDEQSMTSDPYIKMTILPEKKHRVKTRVLRKTLDPVFDETFTFYGIPYPHIQELSLHFTVLSFDRFSRDDVIGEVLIPLSGIELSDGKMLMTREIIKRNAKKSSGRGELLVSLCYQSTTNTLTVVVLKARHLPKSDVSGLSDPYVKVNLYHAKKRISKKKTHVKKCTPNAVFNELFVFDIPCESLEEISVEFLVLDSERGSRNEVIGRLVLGATAEGSGGGHWKEICDFPRRQIAKWHMLCDG
B5: G-protein-regulated inducer of neurite outgrowth 1 (protein, UniProt Q3UNH4 1-932)
chain: MRDCCSSPKAIPAPPRHALDQSLGMDPRHTSSSGAAEGASCSERPAGSLACPSPNCSPLPETPRAHGALTSDNSGTTLFGKPEPMSSAEATPTASEIRNPVFSGKMDGNSLKQADSTSTRKEEAGSLRNEESMLKGKAEPMIYGKGEPGTVGRVDCTASGAENSGSLGKVDMPCSSKVDIVSPGGDNAGSLRKVETISSGKMDPKTENVMHSRRERPGSTGEGDLVSLRENDMKPPDNTDSASTKKTDPEFSGKLTPGSSGKTELVSSVTVAPVTSENVNPVCSGGAGPAAVGNSETLSSVKKDPQLLGKKEAVSSGEGGSVSVRMAETVSARQPEGMFPAKTDSTSSNSTGPSGRADPVSLRNSELVSPVKPERLSSGQAERVSLVKTETLSSGKEDPRSSRRVDHTTVTGNMQTSQKGNPESSGKTDLGSSSSGDTRSLGTWGSLSAAKAEVTEGKGDPQPWKKASLPASEKTDPLASSKAGSASQGKAETVSPGEVDAMTLGKTVPTSSGKTALVSPGKVDLMTSERAEGIPELQASEKGNPVNSTRVDTGATGSTEPKSGVKVITQIPGATSPGKVETPSLQKEQPQLSEKTDPSRKVDPPTTVEPVSLGKADSASPSPRKAESQTSAKTVPQAPDKATSSLRQSDGTPYSSAQPQRDTRSIGSLPEREPSASTSQKDLAAAAAQKSPSAEAAAPPPGPRTRDNFTKAPSWDAGAPPPREDAGTQAGAQACVSVAVSPMSPQDGAGGPAFSFQAAPRAPSPAPRPPSRRDAGLQVSLGAAETRSVATGPMTPQAAAPPAVPPVFPEVRVRPGSVLAAALAPQEATEPVRDVSWDEKGMTWEVYGASMEVEVLGMAIQKHLERQIEEHGRQGAPAPAPPPAVRAGPGRAGSVRTAPAEGAAKRPPGLFRALLQSVRRPRCCSRAGPTAE

Target: Cx36-EGFP (mouse) (UniProt O54851)
Test: proximity labelling; GFP-directed TurboID in vivo: AAV HKamac_V5-TurboID-dGBP injected intravitreally into Cx36-EGFP mice (AII amacrine cells); 5 mM biotin subcutaneously on 4 days; 17 retinas a condition; streptavidin pull-down and LC/MS/MS; compared with injected wild-type mice, SAINT; done twice

Row | Molecule | binding
1 | Signal-induced proliferation-associated 1-like protein 1 (from UniProt Q8C0T5 1-1782) | binds
2 | microtubule-associated protein 6 (from UniProt Q7TSJ2 1-906) | binds
3 | brain-specific angiogenesis inhibitor 1 (from UniProt Q3UHD1 34-1582) (receptor) | binds
4 | Neural cell adhesion molecule 1 (from UniProt P13595 20-1115) | binds
5 | Itsn1 (from UniProt Q9Z0R4 1-1714) | binds
6 | synaptojanin 2 binding protein (mouse retina) (from UniProt Q9D6K5 1-145) | binds
7 | Syntaxin binding protein 1 (from UniProt O08599 1-594) | binds
8 | Golgin subfamily A member 4 (from UniProt Q91VW5 1-2238) | binds
9 | Afadin (mouse retina) (from UniProt Q9QZQ1 1-1820) | binds
10 | Neurobeachin (from UniProt Q9EPN1 1-2936) | binds
11 | Apical junction component 1 (from UniProt A2AJA9 1-974) | binds
12 | Mupp1 (mouse retina) (from UniProt Q8VBX6 1-2055) | no binding
13 | cingulin (from UniProt P59242 1-1191) | binds
14 | signal induced proliferation associated 1 like 3 (mouse retina) (from UniProt G3X9J0 1-1776) | binds
15 | B1 | binds
16 | B2 | binds
17 | B3 | binds
18 | B4 | binds
19 | B5 | binds
